Reference: patent US11421001B2 (UNIVERSITAET ZUERICH, priority 2007, dated 2022)

Experiment: general procedure: Fmoc solid-phase peptide synthesis; Fmoc-Pro-2-chlorotrityl resin (2-chlorotritylchloride resin, 100-200 mesh, Novabiochem)
Details: whole synthesis, UV, scale of the general procedure approximately 60 mg resin per vessel

| Substance | final HPLC purity [%] |
| --- | --- |
| P[dP]KQYCYR[Dab][dP]ASCYHY (cysteine pairing not given here) | 82 |
| P[dP]KQYCYR[Dab][dP]ASCAHY (cysteine pairing not given here) | 72 |

Non-standard residues stand in square brackets, D forms with d. No end group written: not given here. Dab = NCC[C@H](N)C(=O)O
